Source: patent US20240130368A1, “HERBICIDAL COMPOSITION” (Nippon Soda Co., Ltd., priority 2021, published 2024)
Where “and” joins values, the source holds several entries; their conditions need not be identical. Identical values can stand only once. At least one read-out could not be matched to a standard name with certainty.

Test system: Ambrosia artemisiifolia
Assay: Test Example 1: seeds on filter paper moistened with chemical solution, herbicidal effect visually evaluated
Type: in vivo
Details: visually evaluated 6 days after treatment
Description: As the compound (1), 1-methoxy-3-methyl-6-(1,1-dioxido-8-(trifluoromethyl)thiochroman-5-yl)-7-oxa-3,4-diazabicyclo[4.1.0]hept-4-en-2-one (Compound (I-3)) was used.
The compound (I) or compound (II) was prepared into a 5% emulsion using DMF (containing 1.5% Tween) and diluted with water to a prescribed dosage concentration. Commercially available preparations were dissolved in water and adjusted to a prescribed dosage concentration.
Seeds were soaked in 0.6% sodium hypochlorite for a predetermined time for surface sterilization and washed with water for use (seed disinfection). Seeds of Ambrosia artemisiifolia were used for the test.
Filter paper was placed on a cup (diameter: 10 cm, height: 4 cm) with a lid and moistened with 8 ml of chemical solution, and seeds were sown thereon, and after covering with a lid, grown in a constant temperature room.
The herbicidal effects were visually evaluated, 6 days after the treatment, as the herbicidal effect (%), by comparing with a state of an untreated group using a total of 21 scores of withering index from 0 to 20 (0: mortality rate equivalent to that of the untreated group, 20: mortality rate of 100%).
In addition, the expected values of the herbicidal effects were calculated from the herbicidal effects in a case where the compound (I) alone was applied and the herbicidal effects in a case where the compound (II) alone was applied by using the Colby's formula (Colby, S. R., Calculating synergistic and antagonistic responses of herbicide combinations, Weeds, 15, pp. 20-22 (1967)).
M indicates an herbicidal effect (%) in the application of the compound (I) alone, N indicates an herbicidal effect (%) in the application of the compound (II) alone, and E indicates an expected value (%) of the herbicidal effect in the combined application of the compound (T) and the compound (TT). When the actual measured value (%) of the herbicidal effect in the combined application of the compound (I) and the compound (II) is greater than the expected value E, it can be regarded that the combined application of the compound (I) and the compound (II) has a synergistic effect.

COC12OC1(c1ccc(C(F)(F)F)c3c1CCCS3(=O)=O)C=NN(C)C2=O (stereo not shown) [Compound (I-3), 1-methoxy-3-methyl-6-(1,1-dioxido-8-(trifluoromethyl)thiochroman-5-yl)-7-oxa-3,4-diazabicyclo[4.1.0]hept-4-en-2-one]
Herbicidal effect (%) (applied alone, amount of active ingredient 0.2 ppm): 40% and 60% and 55% and 30% and 50% | Herbicidal effect (%) (applied alone, amount of active ingredient 3.1 ppm): 70% | Herbicidal effect (%) (compound applied alone, amount of active ingredient 0.2 ppm): 40% and 50% and 55% and 30% | Herbicidal effect (%) (compound applied alone, amount of active ingredient 3.1 ppm): 65%
